Data taken from ChEMBL document CHEMBL3988442, “University of Dundee, Small-Polar-MMV Screening Library” (2021).

The filed quantity is “Percent Effect” (%).
The record does not define 0% and 100%; most values in the screen are far below 50% and negative numbers occur (in some assays of this library far below -100).
This is an unselected part of the compounds tested.
A dash means the value is not listed here; it may have been measured.

Mtb growth Cornell: 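Whole-cell assay for inhibitors of Mycobacterium tuberculosis growth, labelled Cornell in the record; the read-out is not stated. The concentration is filed as 10 mM, unlikely as a test dose, so the dose is not known. The record gives no direction; compounds strong in two other growth screens of this library score well above the rest, so higher reads as stronger inhibition. About 53,000 compounds were tested under these conditions; 1.7% (about 900) showed 50% or more at least once.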
Mtb heat-shock: 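Assay on Mycobacterium tuberculosis, filed only as a heat shock assay from Cornell; the read-out is not stated. The concentration is filed as 10 mM, unlikely as a test dose, so the dose is not known. Higher reads as stronger inhibition (inferred: compounds with an IC50 in retests scored well above the rest). Size under these conditions: about 69,000 compounds, about 930 of them at 50% or above in at least one test.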

{"compound": "CCC(NC(=O)CS(=O)(=O)C1CCCC1)c1cc(F)ccc1F", "stereo": "stereo unspecified", "Mtb growth Cornell": 16.53, "Mtb heat-shock": -27.57}
{"compound": "O=C(NCCCn1cccn1)C1(c2cccc(Cl)c2)CC1", "Mtb growth Cornell": -14.15, "Mtb heat-shock": -15.98}
{"compound": "Fc1cccc(N2CCOC3(CCCN(c4nncs4)C3)C2)c1", "stereo": "stereo unspecified", "Mtb growth Cornell": 23.02, "Mtb heat-shock": 11.22}
{"compound": "[H][C@]12CN(Cc3ccc(OC)cc3)C(=O)[C@@]1([H])CN(S(=O)(=O)C1CC1)C2", "Mtb heat-shock": -3.1}
{"compound": "FC(F)CN1CCC(NCc2ccc(-n3cccn3)nc2)CC1", "Mtb growth Cornell": 8.178, "Mtb heat-shock": -11.48}
{"compound": "O=C(NCc1ccccc1-n1cccn1)C1CC2(CCNCC2)CN1", "stereo": "stereo unspecified", "Mtb growth Cornell": -3.136, "Mtb heat-shock": 6.532}
{"compound": "N#Cc1cccc(S(=O)(=O)NC2CCN(CC(F)(F)F)C2)c1", "stereo": "stereo unspecified", "Mtb heat-shock": -7.502}
{"compound": "CC(=O)c1ccc(S(=O)(=O)Nc2cnn(C3CCOCC3)c2)cc1", "Mtb growth Cornell": 8.112, "Mtb heat-shock": 11.04}
{"compound": "CCOc1c(CNC2CSCCSC2)cccc1OC", "Mtb heat-shock": -5.913}
{"compound": "Cc1c(C(=O)NC(C)CC(=O)c2cccs2)cnn1C", "stereo": "stereo unspecified", "Mtb growth Cornell": -14.14, "Mtb heat-shock": -9.5}
{"compound": "Cc1ccc(CNC(C)c2nnc3n2CCCC3)o1", "stereo": "stereo unspecified", "Mtb heat-shock": -0.2783}
{"compound": "C1CCC(c2nnc3sc(C4CCOC4)nn23)C1", "stereo": "stereo unspecified", "Mtb heat-shock": 0.4304}
{"compound": "N[C@@H]1c2ccccc2C2(CCN(C(=O)c3ccccc3O)CC2)[C@H]1O", "Mtb growth Cornell": 15.32, "Mtb heat-shock": 13.16}
{"compound": "Cc1cc(CN2CCN(C(=O)NCc3cccs3)CC2)on1", "Mtb growth Cornell": -4.031, "Mtb heat-shock": 0.08491}
{"compound": "[H][C@@]12COC[C@]1(COc1ccc(C#N)cn1)CN(Cc1nccs1)C2", "Mtb growth Cornell": -0.405, "Mtb heat-shock": -33.49}
{"compound": "COCc1cnc2n1CCN(C(=O)C1=CCCC1)C2C", "stereo": "stereo unspecified", "Mtb growth Cornell": -7.458, "Mtb heat-shock": -42.83}
{"compound": "O=C(c1ccc[nH]1)N1Cc2nccn2CC(Cn2ncccc2=O)C1", "stereo": "stereo unspecified", "Mtb growth Cornell": 29.98, "Mtb heat-shock": -11.78}
{"compound": "CC(C)c1nccc(-c2nccn2CCS(C)(=O)=O)n1", "Mtb growth Cornell": 25.21, "Mtb heat-shock": -9.775}
{"compound": "CCC1CN(CC(=O)N2CCN(C(C)=O)CC2)CCN1CCOC", "stereo": "stereo unspecified", "Mtb growth Cornell": -85.63, "Mtb heat-shock": -10.27}
{"compound": "[H][C@@]12CCN(C(=O)c3scnc3C)CC[C@@]1([H])N(c1cccnc1)CCO2", "Mtb growth Cornell": -3.585, "Mtb heat-shock": -24.59}
{"compound": "Cc1nn(C)c(N(C)C)c1CNCC(O)COc1ccccc1.Cl", "stereo": "stereo unspecified", "Mtb growth Cornell": 25.02, "Mtb heat-shock": 8.654}
{"compound": "[H][C@@]12CCCO[C@]1([H])[C@@H](NC(=O)c1nccn1C)CN2Cc1ccc(C)o1", "Mtb growth Cornell": -30, "Mtb heat-shock": 20.35}
{"compound": "O=C(C1CC(=O)N(c2ccccc2)C1)N1CCC2(CC1)OCCO2", "stereo": "stereo unspecified", "Mtb growth Cornell": -2.397, "Mtb heat-shock": -2.932}
{"compound": "O=C(c1cncc(N2CCC3(CCNCC3)CC2)n1)N1CCCC1", "Mtb growth Cornell": -6.687, "Mtb heat-shock": -31.91}
{"compound": "CC(C)=CCN1CC2(CCN(Cc3cccc(C#N)c3)CC2)CC1=O", "Mtb growth Cornell": 2.453, "Mtb heat-shock": 2.211}
{"compound": "N#Cc1cccnc1N1CCC(C2CCCCCN2C(N)=O)CC1", "stereo": "stereo unspecified", "Mtb heat-shock": 20.37}
{"compound": "CC(C)(C)C(Cn1ccnc1)NC(=O)NCc1ccco1", "stereo": "stereo unspecified", "Mtb growth Cornell": 8.825, "Mtb heat-shock": -19.09}
{"compound": "COCCN(Cc1cnn(C)c1)CC1CCN(C(C)C)CC1", "Mtb growth Cornell": 8.581, "Mtb heat-shock": -46.27}
{"compound": "CS(=O)(=O)CC(=O)N(CCN1CCOCC1)Cc1ccco1", "Mtb growth Cornell": -11.69, "Mtb heat-shock": -15.84}
{"compound": "COc1nccc(N2CCN(Cc3ccc(C)cc3)C(=O)C2)c1C#N", "Mtb growth Cornell": 6.901, "Mtb heat-shock": 3.414}
{"compound": "COCC1CN(C(=O)c2ccoc2)Cc2cnn(CC3CCOCC3)c21.O=C(O)C(F)(F)F", "stereo": "stereo unspecified", "Mtb growth Cornell": 7.759, "Mtb heat-shock": 13.8}
{"compound": "CC(C)NC(=O)Nc1nc2c(s1)CN(C(=O)NCc1cccs1)CC2", "Mtb growth Cornell": 53.32, "Mtb heat-shock": 7.667}
{"compound": "Cc1ccc2[nH]c(C3CCN(CC(N)=O)CC3)nc2c1", "Mtb growth Cornell": -20.2, "Mtb heat-shock": -13.91}
{"compound": "CCOCc1ncn2c1CN(S(=O)(=O)c1cccs1)CCC2", "Mtb growth Cornell": -1.001, "Mtb heat-shock": -8.953}
{"compound": "Cc1cnn(CC2CCCN2Cc2cn3ccsc3n2)c1", "stereo": "stereo unspecified", "Mtb heat-shock": 37.29}
{"compound": "Cc1nc(-c2cc(C(=O)O)co2)cs1", "Mtb growth Cornell": 58.57, "Mtb heat-shock": 5.535}
{"compound": "COc1cccc(NC(=O)Cn2cc(-c3ccccc3)ncc2=O)c1", "Mtb growth Cornell": -36.64, "Mtb heat-shock": -8.489}
{"compound": "COc1c(C2CCCN2CC(=O)N(C)c2nccs2)c(C)nn1C", "stereo": "stereo unspecified", "Mtb growth Cornell": 1.976, "Mtb heat-shock": 11.82}

The last 4 entries again:

Compound	Mtb growth Cornell	Mtb heat-shock
Cc1cnn(CC2CCCN2Cc2cn3ccsc3n2)c1 (stereo unspecified)	-	37.29%
Cc1nc(-c2cc(C(=O)O)co2)cs1	58.57%	5.535%
COc1cccc(NC(=O)Cn2cc(-c3ccccc3)ncc2=O)c1	-36.64%	-8.489%
COc1c(C2CCCN2CC(=O)N(C)c2nccs2)c(C)nn1C (stereo unspecified)	1.976%	11.82%